The whole screen tested about 360,000 compounds, of which about 10,000 (2.8%) were called active. Inconclusive means that the source gave no clear call. Such entries were picked first, then a sample of the others. Calls follow the shape of the dose curve; as a rule, active = well fitted inhibition curve with a large enough effect; inconclusive = small, poorly fitted or top-dose-only effect; inactive = flat fitted curve, though single readings scatter. Potencies beside an inconclusive call are fits to weak or partial responses and may not hold up.
Biological target: Serine/threonine-protein kinase PLK1 (Homo sapiens) (UniProt P53350)
Assay: qHTS for Inhibitors of PLK1-PDB (polo-like kinase 1 - polo-box domain): Primary Screen; also: nearly all actives have a fitted effect of over 65% in size; as to max response, negative = inhibition: series mostly up to about 57 µM
Conditions: Plk1 PBD binding of FITC phosphopeptide, fluorescence polarization
% is scaled to controls: 0 for no effect and ±100 for the full control effect; potency is read from the fitted curve at half-maximal effect.

Amino acid sequences for entries named in this document (tags omitted).
UniProt P53350, whole entry, looked up: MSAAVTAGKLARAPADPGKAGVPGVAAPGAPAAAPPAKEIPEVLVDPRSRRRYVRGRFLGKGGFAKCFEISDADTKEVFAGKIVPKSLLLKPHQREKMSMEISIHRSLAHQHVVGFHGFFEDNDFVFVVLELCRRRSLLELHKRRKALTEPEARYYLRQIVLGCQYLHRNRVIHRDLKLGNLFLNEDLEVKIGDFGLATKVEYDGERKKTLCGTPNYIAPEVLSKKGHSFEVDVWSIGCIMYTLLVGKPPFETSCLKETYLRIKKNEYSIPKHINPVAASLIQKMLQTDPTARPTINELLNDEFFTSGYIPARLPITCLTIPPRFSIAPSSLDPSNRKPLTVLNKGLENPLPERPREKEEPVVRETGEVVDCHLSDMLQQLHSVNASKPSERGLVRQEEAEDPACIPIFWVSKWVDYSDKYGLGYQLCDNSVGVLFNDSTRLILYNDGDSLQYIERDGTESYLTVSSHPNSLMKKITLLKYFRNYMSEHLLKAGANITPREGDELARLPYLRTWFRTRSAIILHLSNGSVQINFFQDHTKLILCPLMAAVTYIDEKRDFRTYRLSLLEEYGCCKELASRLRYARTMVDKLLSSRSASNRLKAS

Row | SMILES | Potency | max response, negative = inhibition
1 | O=C(/C=C/c1ccc(Br)cc1)NC(=S)Nc1ccc(S(=O)(=O)Nc2nccs2)cc1 | inconclusive: 26.7 µM [inhibitor, single point] | 
2 | O=C(O)c1cccc(N/N=C(\N=Nc2ccccc2)c2ccccc2)c1 | inconclusive: 23.8 µM [inhibitor, partial curve] | 
3 | Cc1cccc(C)c1N1C(=O)CC(Sc2ccccc2N)C1=O (centres undefined) | inconclusive: 18.9 µM [inhibitor, partial curve] | 
4 | COC(=O)c1cc(=O)n(-c2ccccc2)c(=Nc2ccccc2)s1 |  | inconclusive: -31.6% [inhibitor]
5 | CCC(c1nnc(SCC(=O)Nc2cc(C)on2)o1)N(C)C (centres undefined) | inconclusive: 26.7 µM [inhibitor, partial curve] | 
6 | CC1(C)CC(NC(=O)c2ccccn2)CC(C)(C)N1O | inconclusive: 26.7 µM [inhibitor, single point] | 
7 | Cc1ccc(S(=O)(=O)CNC(=S)c2cccc(Cl)c2)cc1 | inconclusive: 13.4 µM [inhibitor, partial curve] | 
8 | CCOc1ccc(C(=O)Nc2ccc(S(=O)(=O)Nc3nccc(C)n3)cc2)cc1OCC | inconclusive: 37.7 µM [inhibitor, partial curve] | 
9 | CCOCCCNS(=O)(=O)c1ccc2c(c1)OCCO2 | inconclusive: 26.7 µM [inhibitor, partial curve] | 
10 | COc1ccccc1NC(=O)CN(C)S(=O)(=O)c1ccc2c(c1)CCC(=O)N2 |  | inactive: 2.73%
11 | Fc1ccccc1/C=N/n1c(COc2ccccc2)n[nH]c1=S | active: 23.8 µM | 
12 | COc1ccccc1NC(=O)CCC(=O)Nc1cc(OC)c(NC(=O)c2cccs2)cc1OC | active: 26.7 µM | 
13 | CCC1=NN2C(=N)/C(=C\c3cccn3-c3ccc(OC)cc3)C(=O)N=C2S1 | inconclusive: 29.9 µM [inhibitor, single point] | 
14 | COc1ccc(C(C2C(=O)CC(C)(C)CC2=O)C2C(=O)CC(C)(C)CC2=O)cc1CO | inconclusive: 8.44 µM [inhibitor, partial curve] | 
15 | O=C(O)CCc1ccc(S(=O)(=O)Nc2cc(C(F)(F)F)ccc2N2CCCC2)cc1 | inconclusive: 29.9 µM [inhibitor, partial curve] | 
16 | O=C(CSc1nc2ccc(Cl)cc2[nH]1)c1ccc2c(c1)OCO2 |  | inactive: -2.91%
17 | Cc1ccc2nc(NC(=O)CSc3nc4c(c(=O)n3C)SC(C)C4)sc2c1 (centres undefined) | active: 26.7 µM | 
18 | Cc1ncc(CO)c(/C=N/Nc2ccc(C(F)(F)F)cn2)c1O | active: 26.7 µM | 
19 | CN(C)Cc1ccccc1C(O)(c1ccccc1)c1ccccc1 | inconclusive: 37.7 µM [inhibitor, single point] | 
20 | COC(=O)c1ccccc1NC(=O)C1CCN(C(=O)Cc2ccccc2)CC1 |  | inactive: -15%
21 | C=CCc1cccc(/C=N/NC(=O)C(=O)Nc2ccc(C)cc2)c1O |  | inconclusive: -30.2% [inhibitor]
22 | CCOC(=O)c1c(NC(=O)CSc2nnc(C)c(=O)[nH]2)sc2c1CCCC2 | inconclusive: 29.9 µM [inhibitor, partial curve] | 

Structural class: those above containing a CF3 group.
Row | SMILES | Potency | max response, negative = inhibition
15 | O=C(O)CCc1ccc(S(=O)(=O)Nc2cc(C(F)(F)F)ccc2N2CCCC2)cc1 | inconclusive: 29.9 µM [inhibitor, partial curve] | 
18 | Cc1ncc(CO)c(/C=N/Nc2ccc(C(F)(F)F)cn2)c1O | active: 26.7 µM | 

(continued)

Row | SMILES | Potency | max response, negative = inhibition
23 | CC(=O)Nc1ccc(S(=O)(=O)Nc2nc3ccccc3nc2Nc2ccccc2)cc1 |  | inactive: -8.8%
24 | Cc1cc2nc(-c3ccco3)c(Cc3cccc(Cl)c3)n2c(C)c1Br | inconclusive: 11.9 µM [inhibitor, single point] | 
25 | COc1ccc(OC2C(=O)N(c3ccc(F)cc3)C2c2ccc(OC)c(OC)c2)cc1 (centres undefined) |  | inactive: 1.86%
26 | O=C1Nc2cc(Cl)c(Cl)cc2N(O)N1c1cc(Cl)cc(Cl)c1 | inconclusive: 37.7 µM [inhibitor, single point] | 
27 | O=[N+]([O-])c1cccc(C=Nc2cccc3ccccc23)c1O |  | inactive: -9.15%
28 | Brc1cc(Br)c2nc(-c3cccs3)ccc2c1 | inconclusive: 21.2 µM [inhibitor, partial curve] | 
29 | COc1cccc(CC(=O)Nc2ccc(N3CCOCC3)c(S(=O)(=O)Nc3ccccc3OC)c2)c1 |  | inconclusive: -30.4% [inhibitor]
30 | Cc1ccc(/C=N/n2c(-c3ccncc3)n[nH]c2=S)o1 |  | inactive: -8.98%
31 | CCOC(=O)C(C)Sc1nc(-c2cccs2)ccc1C#N (centres undefined) | inconclusive: 18.9 µM [inhibitor, partial curve] | 
32 | O=Cc1ccc(OC(=O)C2CC(=O)N(c3ccc(F)cc3)C2)cc1 (centres undefined) |  | inconclusive: -30.2% [inhibitor]
33 | C/C(=N\NS(=O)(=O)c1ccc(C)c([N+](=O)[O-])c1)c1cccs1 | inconclusive: 26.7 µM [inhibitor, single point] | 
34 | Cc1ccccc1NC(=O)C1c2cccc[n+]2CC(=O)N1c1c(C)cccc1C (centres undefined) |  | inconclusive: -30.6% [inhibitor]
35 | COc1ccc(CN2CCNC(=O)C2CC(=O)N(C)C2CCOCC2)cc1OC (centres undefined) |  | inactive: -9.89%
36 | CCC(=O)NC1=C(Cl)C(=O)C(NC(=O)CC)=C(Cl)C1=O | active: 1.68 µM | 
37 | Cc1c(C(=O)NNC(=S)Nc2ccc(S(N)(=O)=O)cc2)oc2ccccc12 | inconclusive: 29.9 µM [inhibitor, single point] | 
38 | Cc1ccc(C)c(SCC(=O)N(C)CC(=O)Nc2ccc(N3CCOCC3)cc2)c1 | inconclusive: 29.9 µM [inhibitor, partial curve] | 
39 | CCOC(=O)C(C)Sc1nc(=O)n2cccc(C)c2n1 (centres undefined) | inconclusive: 26.7 µM [inhibitor, single point] | 
40 | COc1ccccc1C(=O)Oc1cc(N)n(S(=O)(=O)c2ccccc2)n1 |  | inconclusive: -35.5% [inhibitor]
41 | O=S(=O)(NC1CCCCC1N1CCN(c2ccccc2F)CC1)c1ccccc1 (centres undefined) | inconclusive: 21.2 µM [inhibitor, partial curve] | 
42 | CC(C)C[C@H](NC(=O)CCn1nnc2ccccc2c1=O)C(=O)O | active: 18.9 µM | 
43 | S=c1nc(SCc2ccccc2)[nH]c2ccccc12 | inconclusive: 21.2 µM [inhibitor, partial curve] | 
44 | Cn1nc(C(=O)Nc2ccc(S(=O)(=O)NCc3ccco3)cc2)c2ccccc2c1=O | inconclusive: 33.6 µM [inhibitor, single point] | 

Part of the list above, as tab-separated lines.
Row	SMILES	Potency	max response, negative = inhibition
33	C/C(=N\NS(=O)(=O)c1ccc(C)c([N+](=O)[O-])c1)c1cccs1	inconclusive: 26.7 µM [inhibitor, single point]	
34	Cc1ccccc1NC(=O)C1c2cccc[n+]2CC(=O)N1c1c(C)cccc1C (centres undefined)		inconclusive: -30.6% [inhibitor]

From PubChem BioAssay AID720504 (National Center for Advancing Translational Sciences (NCATS), 2013)
